The values that follow come from paper PMC3458073.

Sequences of proteins named here, by UniProt entry; tags and fusion partners are left off. A change or cut given only in a name is not applied to a line headed by its entry. A line that says so, or that is headed by a name, gives the form on record, which may keep a tag or linker.
human frataxin, C-terminal domain, variant hFXN90–210 (Q16595, form named): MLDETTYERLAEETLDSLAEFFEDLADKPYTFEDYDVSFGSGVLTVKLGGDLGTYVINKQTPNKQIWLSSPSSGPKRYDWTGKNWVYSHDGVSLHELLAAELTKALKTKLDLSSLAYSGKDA

No constants are given. Whether binding was seen depends on the method and setting.

This assay addresses human frataxin, C-terminal domain, variant hFXN90–210 (human) (UniProt Q16595). In words: AUC; sedimentation velocity, 20 °C, 42,000 rpm, absorbance optics; 1.0, 0.5 and 0.25 mg/mL protein; 10 mM Tris-HCl, 100 mM NaCl, pH 7.0; c(s) and non-interacting species analysis (SEDFIT); both purified.

Regarding “human frataxin, C-terminal domain, variant hFXN90–210 (from UniProt Q16595 90-210) (domain or fragment)”, the binding result was “no binding (tested: 0.25 to 1.00 mg/mL)”.
